The list shows only some results of the screen, not a fair sample: its compounds were picked by chemical class. Other doses and runs of a compound may be missing. T/C is the treated group as % of the vehicle group. Some entries show no survivor count and are marked so; the dose need not have been tolerated. Schedule codes are those of the source, read here as Q, the interval in days (D) or hours (H), X, the number of doses.

This passage reports T/C results from PubChem BioAssay AID310 (DTP/NCI, 2004).

The test relates to C3AKF1 mice, osteogenic sarcoma HE10734 s.c., tumor weight T/C. The experiment in a line: NCI In Vivo Anticancer Drug Screen. Data for tumor model Osteogenic Sarcoma HE 10734 (subcutaneous) in C3AKF1 (CHKRF1) mice. The settings on record: T/C endpoint: mean tumor weight, schedule: Q01DX010 (ip), evaluation day not shown, higher T/C = larger tumour. The procedure: The antitumor activity of compounds was measured in mice bearing transplantable tumors. Survival or tumor size were measured and the results are expressed as the measurement made in the treated group (T) divided by the measurement made in the vehicle treated control group (C). The tumor model used in this assay is Osteogenic Sarcoma HE 10734 (subcutaneous) in C3AKF1 (CHKRF1) mice

[1] abbreviates: dose: 2.5 mg/kg/injection, vehicle: saline.

As for `O=C(O)CCc1ccc(CN(CCCl)CCCl)cc1`, the T/C was 99 % of control [survivor count not shown] (dose: 1.25 mg/kg/injection, vehicle: saline) and 59 % of control [survivor count not shown] under setting [1].
For the compound `O=C(O)C(=O)Cc1ccc(N(CCCl)CCCl)cc1`, the T/C (dose: 7.0 mg/kg/injection, vehicle: saline) is 68 % of control [survivor count not shown] and the T/C (dose: 15.0 mg/kg/injection, vehicle: saline) was 22 % of control [survivor count not shown].
In the case of `ClCCN(CCCl)Cc1nc2cc(Cl)c(Cl)cc2[nH]1`, the T/C (dose: 12.5 mg/kg/injection, vehicle: carboxymethylcellulose (CMC)) is 70 % of control [survivor count not shown]; the T/C (dose: 25.0 mg/kg/injection, vehicle: carboxymethylcellulose (CMC)) is 68 % of control [survivor count not shown]; the T/C (dose: 50.0 mg/kg/injection, vehicle: carboxymethylcellulose (CMC)) is 95 % of control [survivor count not shown]; the T/C (dose: 100.0 mg/kg/injection, vehicle: carboxymethylcellulose (CMC)) is 57 % of control [survivor count not shown].
For `Oc1ccc(Cl)cc1CN(CCCl)CCCl`, the T/C was 63 % of control [survivor count not shown] (dose: 6.0 mg/kg/injection, vehicle: saline) and 42 % of control [survivor count not shown] (dose: 12.0 mg/kg/injection, vehicle: saline).
For the compound `O[C@@H](CNCCCl)[C@@H](O)CNCCCl`, the T/C under setting [1] is 118 % of control [survivor count not shown]; the T/C (dose: 5.0 mg/kg/injection, vehicle: saline) was 66 % of control [survivor count not shown]; the T/C (dose: 10.0 mg/kg/injection, vehicle: saline) is 89 % of control [survivor count not shown]; the T/C (dose: 20.0 mg/kg/injection, vehicle: saline) was 66 % of control [survivor count not shown].
Take `COc1cccc(N(CCCl)CCCl)c1OC`: the T/C is 81 % of control [survivor count not shown] (dose: 7.5 mg/kg/injection, vehicle: carboxymethylcellulose (CMC)); 177 % of control [survivor count not shown] (dose: 15.0 mg/kg/injection, vehicle: carboxymethylcellulose (CMC)); 117 % of control [survivor count not shown] (dose: 30.0 mg/kg/injection, vehicle: carboxymethylcellulose (CMC)); 115 % of control [survivor count not shown] (dose: 60.0 mg/kg/injection, vehicle: carboxymethylcellulose (CMC)).
Take `ClCCN(CCCl)Cc1nc2ccc(Cl)cc2[nH]1`: the T/C reads like this: (dose: 5.0 mg/kg/injection, vehicle: carboxymethylcellulose (CMC)) 73 % of control [survivor count not shown]; (dose: 10.0 mg/kg/injection, vehicle: carboxymethylcellulose (CMC)) 86 % of control [survivor count not shown]; (dose: 20.0 mg/kg/injection, vehicle: carboxymethylcellulose (CMC)) 89 % of control [survivor count not shown].
